Sequences of proteins named here, by UniProt entry; tags and fusion partners are left off.
UniProt P53742: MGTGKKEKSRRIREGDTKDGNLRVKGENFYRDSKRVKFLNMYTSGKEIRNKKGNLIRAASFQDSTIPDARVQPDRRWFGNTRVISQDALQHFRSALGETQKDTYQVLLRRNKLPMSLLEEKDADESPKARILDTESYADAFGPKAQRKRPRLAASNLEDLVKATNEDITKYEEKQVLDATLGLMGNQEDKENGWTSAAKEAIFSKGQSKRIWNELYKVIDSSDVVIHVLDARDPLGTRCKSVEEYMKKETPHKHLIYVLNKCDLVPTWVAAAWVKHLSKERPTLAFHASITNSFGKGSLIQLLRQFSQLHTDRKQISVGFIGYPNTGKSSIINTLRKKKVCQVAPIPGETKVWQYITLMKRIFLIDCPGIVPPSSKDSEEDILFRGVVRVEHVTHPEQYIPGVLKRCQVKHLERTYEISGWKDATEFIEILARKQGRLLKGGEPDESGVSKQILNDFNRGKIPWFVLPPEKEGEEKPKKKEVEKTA

According to publication PMC9851907, “A single 2′-O-methylation of ribosomal RNA gates assembly of a functional ribosome” (Nature Structural & Molecular Biology, 2022):

B1: Arx1 (protein, UniProt Q03862 1-593)
chain: MALAISHEDTQILLKDKNILQESVLNKYRTAGQIAQTALKYVTSLINDSYHSKTTQRQLTVPELCLLTDSFILTRLEQYYKNKVNERGIAIPTTIDIDQISGGWCPEIDDTQNLLNWNKGKDSTFASSVTGTLRPGDLVKITLGVHIDGYTSEVSHTMVIYPVDETKPILQPTGPLLGGKADAVAAAHIAMETVVALLACALTPEKLPASLGGTSSGITGQLIRTIVDTIARSYNCGVVPGSRVRRIRRFLAGQNEGIVAEREYKGVVWTESHQEADLLSNTDAKDLTVVDRGQSTPFTNVSAIPSDDFVVQSGEVYLIDLKMASLEHCTKKGLVTLETVDSYTGKSHKAGELIARPGAYVRDFAQTHILKLKTSRQLLTKIDKQGVYPFKLSHLSSNFPFVHENEEELQSLKKDLKSFRLGMSEISNNYLCVESPIQIARWVPWDHILKATNPNGNLSYDATSTLTLPGHELPLPKLGVSAIKLKSLMNSTKESISLPVARECNTIVLCDSSVSTTDRPELLRLTGGSKTCQPSWIHSQHELNPQDSIVQGIFQLATLAKDKRFGLLLKETQPMKQKSVETSNGGVEETMKM
B2: Bud20 (protein, UniProt Q08004 1-166)
chain: MGRYSVKRYKTKRRTRDLDLIYNDLSTKESVQKLLNQPLDETKPGLGQHYCIHCAKYMETAIALKTHLKGKVHKRRVKELRGVPYTQEVSDAAAGYNLNKFLNRVQEITQSVGPEKESNEALLKEHLDSTLANVKTTEPTLPWAAADAEANTAAVTEAESTASAST
B3: Sda1 (protein, UniProt P53313 1-767)
chain: MGRRSRAAMLPTNIILLQNLVKRDPESYQEEFLQQYAHYESLRDIFMLNGLAGGDSAAATNGLDVGNGSSTMAGTNGTTMSTSTSQLIELVGFVSQVCSCFPRETANFPSELKQLLLEHHKSLPFELKEKILSCLTMLRNKDVITAEELIQSLFPLLVAYSSHGNSLGVNSHAKELRKIIYTNLISLLKSCNTNGKNQKLNKSTQAVCFNLLDQPDSQGIWATKLTRELWRRGIWDDSRTVEIMTQAALHQDVKIVMSGVMFFLDADREREENFEENSEDEDGFDLDALRHKMQVNKKTGRRGKKLENAIKTVKKKKKNGPGAPQGYLNFSAIHLLRDPQGFAEKLFKEHLSGKTKNKFDMEQKISLMQLLSRLIGTHKLIVLGIYTFFLKYLTPKQRDVTRIMSACAQACHDLVPPEVINVMVRKIADEFVSDGVANEVAAAGINTIREICSRAPLAIDEILLQDLVEYKGSKAKGVNMAAKSLIALYRDVAPEMLKKKDRGKNAAMEVQEAKKGGKDSKRPQFGADNSVQGIAGIELLAKWKKEHGEESENEDADANWEVDVDSEEDDVDGEWVTMDSDKEYDVDMEDSDDEKDNAKGKESDSDLELSDDDDEKEVKDEQEDADIDPEAAFREIASTRILTPADFAKLQELRNEESVAKIMGIHKQDKREELVDASTLTGPIKYKQSREERLQKVLEGREGRDKFGSRRGKRDNMRSTTNREKERRKNFVMSIHKRSVRGKQKMSLRDKQKVLRAHITKQKKKGY

Each binder was assayed against Nog2-3xFLAG-6xHis (S. cerevisiae (endogenous locus in BY4741-derived strain AJY4427)) (UniProt P53742) (assay: affinity purification with mass spectrometry; Nog2-3xFLAG-bound pre-60S particles immunopurified on anti-FLAG agarose from lysates of yeast expressing WT SPB1 or spb1-D52A (endogenous Spb1 depleted); 50 mM Tris pH 7.6, 100 mM NaCl, 5 mM MgCl2, 0-4 °C; eluted with 3xFLAG peptide; semiquantitative MS-MS of gel samples; partners are together within a ribonucleoprotein particle).

binding | Binder
binds | B1
binds | B2
binds | B3

Results are given in words; binding and its absence hold for the method and conditions named. In cells and extracts the contact can be indirect. These calls come from enrichment with a bait or labelling near it, and not all partners need be listed.
